Test results taken from PubChem BioAssay AID493014 (National Center for Advancing Translational Sciences (NCATS), 2011).
The list shows a part of the results. The main result of the screen is listed elsewhere. These columns were measured beside it and carry no call. The list favours compounds with an active or inconclusive main result. Words in brackets tell the shape of the fitted curve; partial curves, single points and poor fits give uncertain potencies.

Experiment: qHTS Assay to Find Inhibitors of Chronic Active B-Cell Receptor Signaling
Conditions: ABC-DLBCL IkBa-CBG/CBR reporter, luminescence ratio (green luciferase fused to IkBa over red control in TMD8 lymphoma cells), 4 h
Procedure, shortened: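 TMD8 human ABC-DLBCL cells with doxycycline-inducible IκBα–green luciferase fusion and unfused red luciferase, in 0.5% FBS medium; compounds up to 46 uM, 4 h at 37C. Green/red luminescence ratio, filter-overlap corrected, fitted to concentration-response curves.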

[1] = measured here: CBR red luminescence, cell number
[2] = measured here: IkBa-CBG green luminescence

Row | SMILES | AC50 [1] | AC50 [2]
1 | COc1ccc(CN2CCC(N(CCc3ccccc3)Cc3ccccc3)CC2)c(OC)c1 | 20 µM [falling, single point] | –
2 | COc1ccc(C)cc1NC(=O)C/C(C)=N/NC(=O)Cc1cccc2ccccc12 | 35.5 µM [falling, single point] | –
3 | O=C(CN1CCC(C(=O)c2ccc3c(c2)OCCO3)CC1)NCc1ccc(F)cc1 | 35.5 µM [falling, single point] | –
4 | CCCCn1c(N)c(N(CCOC)C(=O)CN2C(=O)c3ccccc3C2=O)c(=O)[nH]c1=O | 14.1 µM [falling, single point] | –
5 | COc1cc(NC(=O)c2ccc3c(c2)OCCO3)ccc1NC(=O)c1ccco1 | 35.5 µM [falling, single point] | –
6 | Cc1ccc(NC(=O)c2cccc(Cl)c2)nc1 | 3.98 µM [falling, full curve] | –
7 | CCCC(=O)NC(c1ccc(C(C)C)cc1)c1ccc2cccnc2c1O (centres undefined) | 35.5 µM [falling, partial curve, poor fit] | –
8 | Cc1cc(NC(=O)CSc2ccc(-c3nc4cc(C)c(C)cc4[nH]3)cn2)no1 | 0.316 µM [falling, full curve, poor fit] | –
9 | Oc1ccc(N=C/C=C/c2cccc(Br)c2)cc1-c1nc2ccccc2s1 | 29.1 µM [falling, single point] | –
10 | Cc1ccc(-n2ncc3c(NC4CCCC4)ncnc32)cc1 | 1.41 µM [falling, full curve] | –
11 | O=C(OC[C@H]1O[C@@H](OC(=O)c2cc(O)c(O)c(OC(=O)c3cc(O)c(O)c(O)c3)c2)[C@H](OC(=O)c2cc(O)c(O)c(OC(=O)c3cc(O)c(O)c(O)c3)c2)[C@@H](OC(=O)c2cc(O)c(O)c(OC(=O)c3cc(O)c(O)c(O)c3)c2)[C@@H]1OC(=O)c1cc(O)c(O)c(OC(=O)c2cc(O)c(O)c(O)c2)c1)c1cc(O)c(O)c(OC(=O)c2cc(O)c(O)c(O)c2)c1 | 25.9 µM [rising, partial curve] | –
12 | COc1ccc(NC(=O)c2nnn(Cc3ccc(SC)cc3)c2N)c(OC)c1 | 13 µM [rising, partial curve] | 10.3 µM [falling, partial curve, poor fit]
13 | Nc1nc(NC(=O)c2cccnc2)nn1-c1ccccc1 | 11.2 µM [falling, partial curve] | –
14 | CC(C(=O)N1CCC(C(N)=O)CC1)N(c1ccc(Oc2ccccc2)cc1)S(C)(=O)=O (centres undefined) | 11.6 µM [rising, single point] | –
15 | COc1ccc(C)cc1NC(=O)CN1CCN(S(=O)(=O)c2ccc(C(C)C)cc2)CC1 | – | 3.26 µM [rising, partial curve, poor fit]
16 | COc1ccc(C(=O)N/C(=C\c2cn(S(=O)(=O)N(C)C)c3ccccc23)C(=O)NCCCN2CCOCC2)cc1 | 17.8 µM [falling, partial curve, poor fit] | –
17 | CCCc1oc(C(=O)O)cc1CN1CCCC1 | 0.92 µM [rising, partial curve, poor fit] | –
18 | CCOc1ccc(-n2c(SCC(=O)O)nc3sc4c(c3c2=O)CCCC4)cc1 | 15.8 µM [rising, single point] | –
19 | CCOC(=O)C1=C(C)NC(SC)=NC1c1ccccc1 (centres undefined) | 20.6 µM [rising, single point] | –
20 | Cc1cccc(NC(=O)COc2ccccc2C(=O)NC(C)c2ccccc2)c1 (centres undefined) | 0.631 µM [rising, full curve, poor fit] | –

Row | SMILES | AC50 [1] | AC50 [2]
21 | COc1cccc(/C=N/NC(=S)Nc2cccnc2)c1 | 11.2 µM [falling, partial curve] | 31.6 µM [falling, single point]
22 | COC(=O)CCC(=O)N1CCCC(CNS(=O)(=O)c2ccc(OC)cc2)C1 (centres undefined) | 35.5 µM [rising, single point] | –
23 | O=C(COc1cccc2cccnc12)N1CCc2ccccc21 | 12.6 µM [falling, partial curve] | –
24 | CC(/C=C1\SC(=O)N(CC(=O)Nc2ccc(O)cc2)C1=O)=C\c1ccccc1 | 0.58 µM [rising, full curve] | –
25 | CC(C)(C)c1ccc(C2SCC(=O)N2c2cccc(C(=O)O)c2)cc1 (centres undefined) | 25.1 µM [rising, single point] | –
26 | C[C@H](NC(=O)CCCn1nnc2ccccc2c1=O)C(=O)O | 5.62 µM [rising, single point] | –
27 | COc1ccc(-c2nnc(-c3ccc(C)cc3)o2)cc1 | 35.5 µM [rising, single point] | –
28 | O=C(N/N=C/c1ccccc1C(=O)O)c1ccccc1Br | 6.31 µM [falling, partial curve, poor fit] | –
29 | CC(=O)Nc1ccc(S(=O)(=O)Nc2ccccc2C(=O)N2CCCC2)cc1 | 3.16 µM [falling, single point] | –
30 | Oc1nc(-c2ccc(Cl)cc2)n2ccncc12 | 0.447 µM [rising, full curve, poor fit] | –
31 | CCN(CC(=O)Nc1ccc(OC)c(OC)c1)S(=O)(=O)c1ccc(C)cc1 | 6.51 µM [rising, full curve, poor fit] | –
32 | CCCCC(=O)O[C@H]1CC[C@H]2[C@@H]3CCc4cc(O)ccc4[C@H]3CC[C@]12C | 9.2 µM [rising, partial curve, poor fit] | –
33 | CN1C2C=C3C(C#N)=C(N)C(C#N)(C#N)[C@@H](c4cccs4)C3C1CC2 (some centres undefined) | 25.9 µM [rising, single point] | –
34 | COc1cccc(-c2nnn(CC(=O)N(CC(C)C)C3CCS(=O)(=O)C3)n2)c1 (centres undefined) | 10.3 µM [falling, partial curve] | –
35 | Cc1ccc(Nc2nc(CSc3nnc(-c4ccncc4)n3-c3ccccc3C)cs2)cc1 | 16.4 µM [falling, partial curve] | –
36 | Cc1cc(C)cc(NC(=O)NCC(O)COc2ccc([N+](=O)[O-])cc2)c1 (centres undefined) | 35.5 µM [falling, single point] | –
37 | CN(Cc1cnccn1)Cc1cn(Cc2ccccc2)nc1-c1ccc2c(c1)OCO2 | 3.16 µM [rising, single point] | –
38 | Cc1cc(N)n2ncc(-c3ccc(Cl)cc3)c2n1 | 0.1 µM [rising, full curve, poor fit] | –
39 | Cc1oc(-c2ccc(Cl)cc2)cc1C(=O)/C(C#N)=C/Nc1cccc(OC(F)(F)F)c1 | 1.26 µM [rising, partial curve, poor fit] | 2.51 µM [rising, full curve, poor fit]
40 | O=C(Nc1nc(-c2cccnc2)cs1)c1cccc([N+](=O)[O-])c1 | 0.158 µM [rising, full curve, poor fit] | –

Row | SMILES | AC50 [1] | AC50 [2]
41 | CCC(C)c1ccc(NS(=O)(=O)c2c(C)[nH]c(=O)[nH]c2=O)cc1 (centres undefined) | 35.5 µM [falling, single point] | –
42 | COc1ccccc1C(=O)Nc1cc2cc(Br)ccc2oc1=O | 29.1 µM [rising, single point] | –
43 | COc1cccc2c1OCC(CN1CCN(Cc3ccccc3)C(CCO)C1)=C2 (centres undefined) | 5.62 µM [rising, single point] | –
44 | C=CCNC(=S)Nc1ccc2cn[nH]c2c1 | 35.5 µM [falling, single point] | –
45 | CCOC(=O)c1[nH]nc(-c2cc(CC)c(O)cc2O)c1-c1cscn1 | 1 µM [falling, full curve, poor fit] | –
46 | CCCN1CCN(CCCNC(=O)c2cc3c(=O)[nH]c4ccc(C)cc4c3s2)CC1 | 7.94 µM [falling, partial curve, poor fit] | –
47 | COc1nc(Nc2nc3ccccc3c(=O)[nH]2)nc2ccc(C)cc12 | 0.398 µM [falling, full curve, poor fit] | –
48 | COc1ccc(/C=C/C(=O)O)cc1OC | 29.1 µM [rising, single point] | –
49 | Cc1ccc(NC(=O)C(C)Sc2nnc(C)n2C2CC2)cc1S(=O)(=O)N1CCOCC1 (centres undefined) | 32.6 µM [rising, single point] | –
50 | Cc1ccc(C)c(OC(C)C(=O)Nc2ccc(S(=O)(=O)Nc3nccs3)cc2)c1 (centres undefined) | 8.91 µM [falling, partial curve, poor fit] | –
51 | COC(=O)c1ccc(NC(=O)C2CCN(C(=O)c3cc(OC)c(OC)c(OC)c3)CC2)cc1 | 6.51 µM [rising, single point] | –
52 | COc1ccc(/C=C/C(=O)c2ccoc2)cc1 | 35.5 µM [falling, single point] | –
53 | Cc1ccccc1-n1c(SCC(=O)c2cc(C)n(C)c2C)nnc1-c1cccnc1 | 29.1 µM [falling, single point] | –
54 | Cc1cccc(/C=C/c2nc3ccccc3c(=O)n2Cc2ccccc2)c1 | 29.1 µM [falling, single point] | –
55 | Cc1ccc(N/C=C/C(=O)c2ccco2)c(O)c1 | 10 µM [falling, partial curve, poor fit] | –
56 | O=C(Cc1ccc(Cl)cc1)Oc1cccc2cccnc12 | 23.1 µM [falling, partial curve] | 29.1 µM [falling, single point]
57 | CCOC(=O)N1CCN(c2ccc(Cl)cc2)CC1 | 14.6 µM [rising, partial curve] | –
58 | Cn1c(=O)[nH]c(=O)c2c1nc(Sc1nc3ccccc3s1)n2Cc1ccccc1 | 29.1 µM [rising, single point] | –
59 | CCCc1nc2ccccc2c(=O)n1NC(=O)c1c(O)c2cccc3c2n(c1=O)CCC3 | 6.51 µM [falling, partial curve, poor fit] | –
60 | CCN(CC)S(=O)(=O)c1ccc(O)c(NS(=O)(=O)c2ccccc2F)c1 | 29.1 µM [rising, partial curve, poor fit] | –

Five compounds from above, ordered by formula weight, smallest number first:
Row | SMILES | AC50 [1] | AC50 [2]
44 | C=CCNC(=S)Nc1ccc2cn[nH]c2c1 | 35.5 µM [falling, single point] | –
60 | CCN(CC)S(=O)(=O)c1ccc(O)c(NS(=O)(=O)c2ccccc2F)c1 | 29.1 µM [rising, partial curve, poor fit] | –
59 | CCCc1nc2ccccc2c(=O)n1NC(=O)c1c(O)c2cccc3c2n(c1=O)CCC3 | 6.51 µM [falling, partial curve, poor fit] | –
51 | COC(=O)c1ccc(NC(=O)C2CCN(C(=O)c3cc(OC)c(OC)c(OC)c3)CC2)cc1 | 6.51 µM [rising, single point] | –
49 | Cc1ccc(NC(=O)C(C)Sc2nnc(C)n2C2CC2)cc1S(=O)(=O)N1CCOCC1 (centres undefined) | 32.6 µM [rising, single point] | –
